The supplement of paper PMC6411743
± gives the standard deviation of the averaged measurements. The entries are a selection whose mix differs from that of the whole data set. Most values lie at the level of the controls, where differences are scatter.

Chains of the proteins cited; added tags and fusions are not shown. Lines headed by an entry give the natural chain unless they say otherwise; changes in a name come on top.
UniProt Q9NWV8, whole entry: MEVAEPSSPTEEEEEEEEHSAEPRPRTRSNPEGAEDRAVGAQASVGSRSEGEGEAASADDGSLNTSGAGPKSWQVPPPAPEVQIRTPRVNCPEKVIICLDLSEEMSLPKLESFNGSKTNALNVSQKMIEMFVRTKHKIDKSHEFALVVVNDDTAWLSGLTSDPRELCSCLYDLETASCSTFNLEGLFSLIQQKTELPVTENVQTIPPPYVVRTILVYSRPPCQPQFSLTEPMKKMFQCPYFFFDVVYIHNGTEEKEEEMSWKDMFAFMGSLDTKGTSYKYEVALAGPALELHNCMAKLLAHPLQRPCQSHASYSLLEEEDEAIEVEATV
UniProt Q9NYS0: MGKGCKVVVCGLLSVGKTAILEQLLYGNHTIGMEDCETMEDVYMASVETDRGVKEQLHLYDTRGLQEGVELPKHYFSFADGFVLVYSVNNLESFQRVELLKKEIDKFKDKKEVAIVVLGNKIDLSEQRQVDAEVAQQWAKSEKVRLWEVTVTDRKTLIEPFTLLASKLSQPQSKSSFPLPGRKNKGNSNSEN
UniProt Q9NZ08: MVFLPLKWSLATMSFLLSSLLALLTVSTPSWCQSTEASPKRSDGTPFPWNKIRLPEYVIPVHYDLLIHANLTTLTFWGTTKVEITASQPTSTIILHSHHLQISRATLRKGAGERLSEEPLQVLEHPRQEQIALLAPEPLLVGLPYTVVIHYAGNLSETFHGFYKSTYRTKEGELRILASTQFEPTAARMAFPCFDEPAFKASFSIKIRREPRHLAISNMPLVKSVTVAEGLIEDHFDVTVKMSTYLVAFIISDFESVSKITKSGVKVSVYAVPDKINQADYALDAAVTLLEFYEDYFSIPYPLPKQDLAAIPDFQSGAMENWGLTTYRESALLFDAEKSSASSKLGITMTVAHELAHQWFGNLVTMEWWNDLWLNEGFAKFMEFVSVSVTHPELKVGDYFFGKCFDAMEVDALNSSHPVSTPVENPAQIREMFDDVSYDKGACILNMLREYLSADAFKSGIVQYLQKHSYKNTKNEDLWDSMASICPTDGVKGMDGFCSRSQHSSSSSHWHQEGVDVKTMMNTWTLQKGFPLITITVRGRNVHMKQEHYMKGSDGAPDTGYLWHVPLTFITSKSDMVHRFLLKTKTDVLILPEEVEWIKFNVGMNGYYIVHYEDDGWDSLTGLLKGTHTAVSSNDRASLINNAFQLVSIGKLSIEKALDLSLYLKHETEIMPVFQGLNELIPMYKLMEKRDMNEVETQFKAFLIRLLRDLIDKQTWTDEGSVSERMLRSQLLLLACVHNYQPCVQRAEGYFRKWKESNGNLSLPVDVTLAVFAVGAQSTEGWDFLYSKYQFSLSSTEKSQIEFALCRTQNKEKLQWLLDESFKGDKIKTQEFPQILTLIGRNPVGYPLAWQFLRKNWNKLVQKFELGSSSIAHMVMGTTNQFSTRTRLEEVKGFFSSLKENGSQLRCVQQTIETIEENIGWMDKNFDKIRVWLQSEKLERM
UniProt Q9NVE7: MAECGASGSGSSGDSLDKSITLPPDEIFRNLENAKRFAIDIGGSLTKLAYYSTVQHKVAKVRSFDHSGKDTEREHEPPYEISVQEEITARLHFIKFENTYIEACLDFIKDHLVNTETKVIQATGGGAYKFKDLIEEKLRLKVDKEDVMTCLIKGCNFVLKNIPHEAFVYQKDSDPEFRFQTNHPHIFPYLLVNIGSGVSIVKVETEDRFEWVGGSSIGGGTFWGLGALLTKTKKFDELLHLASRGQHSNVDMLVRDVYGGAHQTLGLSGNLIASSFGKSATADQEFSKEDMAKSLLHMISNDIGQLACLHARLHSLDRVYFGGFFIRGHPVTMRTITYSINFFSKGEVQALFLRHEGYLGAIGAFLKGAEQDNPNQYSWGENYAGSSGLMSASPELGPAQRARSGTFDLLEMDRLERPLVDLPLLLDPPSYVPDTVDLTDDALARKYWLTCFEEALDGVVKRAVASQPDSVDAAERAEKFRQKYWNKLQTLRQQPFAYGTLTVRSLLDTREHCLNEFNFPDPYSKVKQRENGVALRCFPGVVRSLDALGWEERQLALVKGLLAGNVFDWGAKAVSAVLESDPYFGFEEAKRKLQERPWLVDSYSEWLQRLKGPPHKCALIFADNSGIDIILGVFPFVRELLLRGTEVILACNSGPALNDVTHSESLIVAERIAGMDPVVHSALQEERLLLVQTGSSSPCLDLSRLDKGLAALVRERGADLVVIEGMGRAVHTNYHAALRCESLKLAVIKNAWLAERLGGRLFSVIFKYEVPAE
UniProt Q9P2R6: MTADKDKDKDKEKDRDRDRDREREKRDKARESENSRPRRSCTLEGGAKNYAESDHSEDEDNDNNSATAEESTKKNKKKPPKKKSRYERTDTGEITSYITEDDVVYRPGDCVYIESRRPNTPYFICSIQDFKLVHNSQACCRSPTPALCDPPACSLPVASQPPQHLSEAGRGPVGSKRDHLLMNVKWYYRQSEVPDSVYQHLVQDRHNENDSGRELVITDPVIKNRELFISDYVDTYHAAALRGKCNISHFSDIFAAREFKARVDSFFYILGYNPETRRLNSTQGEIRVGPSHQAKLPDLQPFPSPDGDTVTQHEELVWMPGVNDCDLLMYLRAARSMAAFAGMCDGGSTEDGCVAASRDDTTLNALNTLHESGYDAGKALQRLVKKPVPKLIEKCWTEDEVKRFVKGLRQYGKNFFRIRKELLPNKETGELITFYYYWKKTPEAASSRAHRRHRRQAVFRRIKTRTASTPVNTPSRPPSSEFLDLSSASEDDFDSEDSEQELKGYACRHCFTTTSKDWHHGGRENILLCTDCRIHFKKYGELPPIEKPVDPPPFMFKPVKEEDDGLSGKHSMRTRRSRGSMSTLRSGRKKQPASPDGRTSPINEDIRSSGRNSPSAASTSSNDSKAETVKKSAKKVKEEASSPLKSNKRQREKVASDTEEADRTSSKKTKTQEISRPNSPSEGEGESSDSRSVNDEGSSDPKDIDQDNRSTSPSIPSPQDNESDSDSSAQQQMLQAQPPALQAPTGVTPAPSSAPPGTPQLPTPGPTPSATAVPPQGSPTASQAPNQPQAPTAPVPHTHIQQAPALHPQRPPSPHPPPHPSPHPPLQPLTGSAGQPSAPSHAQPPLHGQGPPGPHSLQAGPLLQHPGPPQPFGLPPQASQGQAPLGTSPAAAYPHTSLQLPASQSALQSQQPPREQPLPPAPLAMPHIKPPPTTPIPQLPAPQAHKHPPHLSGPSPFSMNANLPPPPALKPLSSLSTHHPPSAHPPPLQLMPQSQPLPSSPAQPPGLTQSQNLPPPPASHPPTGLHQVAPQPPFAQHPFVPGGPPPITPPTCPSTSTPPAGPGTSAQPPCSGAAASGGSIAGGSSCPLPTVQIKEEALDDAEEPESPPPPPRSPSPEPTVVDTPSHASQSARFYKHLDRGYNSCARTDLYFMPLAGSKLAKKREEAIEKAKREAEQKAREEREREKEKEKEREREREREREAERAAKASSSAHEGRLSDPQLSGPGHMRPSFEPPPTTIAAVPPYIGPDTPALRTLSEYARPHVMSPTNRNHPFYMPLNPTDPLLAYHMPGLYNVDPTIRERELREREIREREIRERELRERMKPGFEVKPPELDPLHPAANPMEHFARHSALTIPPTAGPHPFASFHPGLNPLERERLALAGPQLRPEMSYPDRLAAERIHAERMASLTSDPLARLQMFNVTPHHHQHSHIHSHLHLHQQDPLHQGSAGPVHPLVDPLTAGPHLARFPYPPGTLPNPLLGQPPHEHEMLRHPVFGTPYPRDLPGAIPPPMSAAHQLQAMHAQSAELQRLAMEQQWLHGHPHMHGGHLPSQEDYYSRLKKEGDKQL
UniProt Q9P2W1: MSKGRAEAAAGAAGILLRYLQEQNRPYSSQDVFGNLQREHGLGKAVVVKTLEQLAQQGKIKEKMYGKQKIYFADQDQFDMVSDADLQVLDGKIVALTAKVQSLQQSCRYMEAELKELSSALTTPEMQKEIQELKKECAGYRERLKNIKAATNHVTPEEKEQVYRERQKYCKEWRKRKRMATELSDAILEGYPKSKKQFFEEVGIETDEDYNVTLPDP
UniProt Q9NS91, whole entry: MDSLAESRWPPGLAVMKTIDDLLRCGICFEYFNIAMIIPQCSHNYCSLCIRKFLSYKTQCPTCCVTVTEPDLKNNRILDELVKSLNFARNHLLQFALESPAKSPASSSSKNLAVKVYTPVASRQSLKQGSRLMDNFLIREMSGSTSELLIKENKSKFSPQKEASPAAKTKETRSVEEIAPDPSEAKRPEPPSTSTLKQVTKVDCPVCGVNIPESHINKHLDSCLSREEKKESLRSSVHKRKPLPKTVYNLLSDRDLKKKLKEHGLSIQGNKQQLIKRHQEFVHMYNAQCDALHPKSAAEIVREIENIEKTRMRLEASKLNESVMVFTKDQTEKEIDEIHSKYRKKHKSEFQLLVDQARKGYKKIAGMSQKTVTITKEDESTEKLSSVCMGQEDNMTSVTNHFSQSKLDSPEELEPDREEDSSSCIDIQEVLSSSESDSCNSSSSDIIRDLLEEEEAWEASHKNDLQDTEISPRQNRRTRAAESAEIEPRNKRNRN
UniProt Q9NPJ6: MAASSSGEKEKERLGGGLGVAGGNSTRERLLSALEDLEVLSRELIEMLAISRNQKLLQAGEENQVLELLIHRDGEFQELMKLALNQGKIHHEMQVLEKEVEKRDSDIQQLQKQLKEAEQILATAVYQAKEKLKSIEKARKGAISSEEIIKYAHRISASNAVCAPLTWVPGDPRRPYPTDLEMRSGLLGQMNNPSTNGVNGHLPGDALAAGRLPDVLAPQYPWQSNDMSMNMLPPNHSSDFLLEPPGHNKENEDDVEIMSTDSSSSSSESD
UniProt Q9NYL9: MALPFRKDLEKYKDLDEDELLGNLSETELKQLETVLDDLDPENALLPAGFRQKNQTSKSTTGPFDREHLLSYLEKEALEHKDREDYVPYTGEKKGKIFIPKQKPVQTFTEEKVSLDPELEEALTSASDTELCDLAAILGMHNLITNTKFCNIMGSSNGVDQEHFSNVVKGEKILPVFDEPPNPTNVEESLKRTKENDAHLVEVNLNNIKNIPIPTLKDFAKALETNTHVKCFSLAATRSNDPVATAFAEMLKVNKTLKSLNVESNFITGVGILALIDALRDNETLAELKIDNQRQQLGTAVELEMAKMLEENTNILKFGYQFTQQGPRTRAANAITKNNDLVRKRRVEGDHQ
UniProt Q9NYP7: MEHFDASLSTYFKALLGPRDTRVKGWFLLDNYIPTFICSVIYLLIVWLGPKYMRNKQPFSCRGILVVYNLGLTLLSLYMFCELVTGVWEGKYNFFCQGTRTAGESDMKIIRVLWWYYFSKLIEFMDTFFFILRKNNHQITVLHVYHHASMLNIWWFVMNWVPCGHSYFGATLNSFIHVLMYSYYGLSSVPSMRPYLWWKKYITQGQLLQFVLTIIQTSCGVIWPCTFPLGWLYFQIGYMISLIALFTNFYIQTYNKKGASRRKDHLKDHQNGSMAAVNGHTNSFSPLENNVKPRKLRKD
UniProt Q9P0U3: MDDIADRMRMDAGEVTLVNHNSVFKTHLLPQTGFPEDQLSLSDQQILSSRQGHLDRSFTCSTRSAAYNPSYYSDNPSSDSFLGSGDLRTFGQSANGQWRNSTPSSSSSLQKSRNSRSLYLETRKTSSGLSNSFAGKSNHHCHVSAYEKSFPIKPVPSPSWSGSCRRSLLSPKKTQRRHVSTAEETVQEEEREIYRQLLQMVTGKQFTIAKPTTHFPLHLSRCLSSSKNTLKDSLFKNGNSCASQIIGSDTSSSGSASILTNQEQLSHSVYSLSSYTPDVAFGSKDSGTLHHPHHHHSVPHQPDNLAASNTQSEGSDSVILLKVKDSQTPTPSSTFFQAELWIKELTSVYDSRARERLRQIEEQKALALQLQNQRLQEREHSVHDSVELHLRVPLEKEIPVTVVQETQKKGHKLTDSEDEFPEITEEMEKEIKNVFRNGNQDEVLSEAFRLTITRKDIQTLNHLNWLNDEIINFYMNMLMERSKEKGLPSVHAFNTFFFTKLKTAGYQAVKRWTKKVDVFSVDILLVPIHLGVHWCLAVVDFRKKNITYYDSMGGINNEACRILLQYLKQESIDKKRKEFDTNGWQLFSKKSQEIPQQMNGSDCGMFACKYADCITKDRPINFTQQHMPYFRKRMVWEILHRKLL
UniProt Q9NQZ2: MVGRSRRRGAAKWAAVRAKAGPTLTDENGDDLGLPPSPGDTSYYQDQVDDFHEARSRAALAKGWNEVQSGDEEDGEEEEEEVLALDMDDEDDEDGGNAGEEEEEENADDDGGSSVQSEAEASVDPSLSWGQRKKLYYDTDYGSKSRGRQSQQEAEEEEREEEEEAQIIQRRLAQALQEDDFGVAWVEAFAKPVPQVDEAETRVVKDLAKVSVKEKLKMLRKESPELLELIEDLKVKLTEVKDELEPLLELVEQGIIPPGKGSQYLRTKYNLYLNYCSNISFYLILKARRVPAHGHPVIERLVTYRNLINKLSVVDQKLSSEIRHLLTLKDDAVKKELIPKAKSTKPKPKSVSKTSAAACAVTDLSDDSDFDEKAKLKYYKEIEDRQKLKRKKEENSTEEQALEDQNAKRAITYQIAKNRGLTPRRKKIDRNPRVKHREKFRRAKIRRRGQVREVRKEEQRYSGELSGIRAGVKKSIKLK

Compound: Nc1ncnc2c1ncn2[C@@H]1O[C@H](COP(=O)(O)OP(=O)(O)NP(=O)(O)O)[C@@H](O)[C@H]1O [adenylyl imidodiphosphate]
Experiment: NP40-soluble protein abundance relative to vehicle (solubility fold change) (ratio); higher = more soluble protein in presence of AMP-PNP
Summary of the method: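 Eight concentrations, 0.1 to 10 mM, were tested on Jurkat crude lysate for 10 min at room temperature and then 3 min at 37 °C, in three independent experiments. The lysate was solubilised with 0.8% NP40 and benzonase, ultracentrifuged, and the supernatant TMT-labelled for LC-MS/MS. Each value is the fold change against the detergent-processed vehicle in its own replicate, from vsn-normalised intensities.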

With PIH1D1 (UniProt Q9NWS0) as the target, how does the NP40-soluble protein abundance (concentration: 0.1mM) read?
Its NP40-soluble protein abundance is 0.997 ± 0.026.

What about the NP40-soluble protein abundance (concentration: 0.5mM) of the same target?
The NP40-soluble protein abundance was 0.961 ± 0.023.

What does the source list for UniProt Q9NUP7?
NP40-soluble protein abundance (concentration: 0.1mM): 1 ± 0.04; NP40-soluble protein abundance (concentration: 0.5mM): 0.988 ± 0.051

What does the source list for MRPL39 (UniProt Q9NYK5)?
NP40-soluble protein abundance (concentration: 0.1mM): 1.04 ± 0.079; NP40-soluble protein abundance (concentration: 0.5mM): 1.01 ± 0.066

How did the NP40-soluble protein abundance (concentration: 0.1mM) turn out when UniProt Q9NWV8 was run?
The NP40-soluble protein abundance was 1 ± 0.03.

And the NP40-soluble protein abundance (concentration: 0.5mM)?
Its NP40-soluble protein abundance is 0.983 ± 0.012.

For NKIRAS1 (UniProt Q9NYS0), which NP40-soluble protein abundance (concentration: 0.1mM) is on record?
The NP40-soluble protein abundance was 1 ± 0.02.

And the NP40-soluble protein abundance (concentration: 0.5mM)?
Its NP40-soluble protein abundance is 0.994 ± 0.014.

For ABCB10 (UniProt Q9NRK6), which NP40-soluble protein abundance (concentration: 0.1mM) is on record?
The NP40-soluble protein abundance was 1.03 ± 0.047.

And the NP40-soluble protein abundance (concentration: 0.5mM)?
The NP40-soluble protein abundance was 0.973 ± 0.082.

UniProt Q9NZ08 and related entries was tested. Which NP40-soluble protein abundance (concentration: 0.1mM) did it give?
The NP40-soluble protein abundance was 1.009 ± 0.0048.

What about the NP40-soluble protein abundance (concentration: 0.5mM) of the same target?
Its NP40-soluble protein abundance is 0.993 ± 0.03.

For DPP3 (UniProt Q9NY33), which NP40-soluble protein abundance (concentration: 0.1mM) is on record?
Its NP40-soluble protein abundance is 0.995 ± 0.014.

What about the NP40-soluble protein abundance (concentration: 0.5mM) of the same target?
Its NP40-soluble protein abundance is 1 ± 0.037.

With PANK4 (UniProt Q9NVE7) as the target, how does the NP40-soluble protein abundance (concentration: 0.1mM) read?
The NP40-soluble protein abundance was 1.06 ± 0.051.

What about the NP40-soluble protein abundance (concentration: 0.5mM) of the same target?
The NP40-soluble protein abundance was 1 ± 0.052.

What does the source list for RERE (UniProt Q9P2R6)?
NP40-soluble protein abundance (concentration: 0.1mM): 1.025 ± 0.0044; NP40-soluble protein abundance (concentration: 0.5mM): 1.038 ± 0.01

For PSMC3IP (UniProt Q9P2W1), which NP40-soluble protein abundance (concentration: 0.1mM) is on record?
Its NP40-soluble protein abundance is 0.993 ± 0.014.

And the NP40-soluble protein abundance (concentration: 0.5mM)?
The NP40-soluble protein abundance was 1.03 ± 0.061.

What does the source list for TBC1D22B (UniProt Q9NU19)?
NP40-soluble protein abundance (concentration: 0.1mM): 1 ± 0.0064; NP40-soluble protein abundance (concentration: 0.5mM): 1 ± 0.02

How did the NP40-soluble protein abundance (concentration: 0.1mM) turn out when RAD18 (UniProt Q9NS91) was run?
The NP40-soluble protein abundance was 1.02 ± 0.026.

What about the NP40-soluble protein abundance (concentration: 0.5mM) of the same target?
The NP40-soluble protein abundance was 1.01 ± 0.016.

Which NP40-soluble protein abundance (concentration: 0.1mM) does the source give for PAK1IP1 (UniProt Q9NWT1) here?
The NP40-soluble protein abundance was 1.006 ± 0.0055.

What about the NP40-soluble protein abundance (concentration: 0.5mM) of the same target?
The NP40-soluble protein abundance was 1.01 ± 0.045.

How did the NP40-soluble protein abundance (concentration: 0.1mM) turn out when MED4 (UniProt Q9NPJ6) was run?
Its NP40-soluble protein abundance is 0.994 ± 0.015.

What about the NP40-soluble protein abundance (concentration: 0.5mM) of the same target?
Its NP40-soluble protein abundance is 1.01 ± 0.025.

TMOD3 (UniProt Q9NYL9) was tested. Which NP40-soluble protein abundance (concentration: 0.1mM) did it give?
The NP40-soluble protein abundance was 1.02 ± 0.029.

And the NP40-soluble protein abundance (concentration: 0.5mM)?
The NP40-soluble protein abundance was 1.03 ± 0.054.

What does the source list for UniProt Q9NYP7 and related entries?
NP40-soluble protein abundance (concentration: 0.1mM): 1.03 ± 0.11; NP40-soluble protein abundance (concentration: 0.5mM): 1.01 ± 0.14

Which results are given for UniProt Q9P0U3 and related entries?
NP40-soluble protein abundance (concentration: 0.1mM): 0.999 ± 0.024; NP40-soluble protein abundance (concentration: 0.5mM): 0.984 ± 0.044

What does the source list for UTP3 (UniProt Q9NQZ2)?
NP40-soluble protein abundance (concentration: 0.1mM): 1.03 ± 0.018; NP40-soluble protein abundance (concentration: 0.5mM): 1.04 ± 0.022

What does the source list for IGF2BP1 (UniProt Q9NZI8)?
NP40-soluble protein abundance (concentration: 0.1mM): 0.982 ± 0.029; NP40-soluble protein abundance (concentration: 0.5mM): 1.03 ± 0.046

UniProt Q9NZL9 and related entries was tested. Which NP40-soluble protein abundance (concentration: 0.1mM) did it give?
Its NP40-soluble protein abundance is 1.07 ± 0.018.

What about the NP40-soluble protein abundance (concentration: 0.5mM) of the same target?
The NP40-soluble protein abundance was 0.9954 ± 0.0041.

Which results are given for TFIP11 (UniProt Q9UBB9)?
NP40-soluble protein abundance (concentration: 0.1mM): 1.027 ± 0.0025; NP40-soluble protein abundance (concentration: 0.5mM): 1 ± 0.031

UniProt Q9NX04 and related entries was tested. Which NP40-soluble protein abundance (concentration: 0.1mM) did it give?
Its NP40-soluble protein abundance is 1.04 ± 0.026.

And the NP40-soluble protein abundance (concentration: 0.5mM)?
Its NP40-soluble protein abundance is 1.02 ± 0.025.
